Results on five molecules are retold here after publication PMC11103506.

Chains of the proteins cited; added tags and fusions are not shown.
UniProt P29351: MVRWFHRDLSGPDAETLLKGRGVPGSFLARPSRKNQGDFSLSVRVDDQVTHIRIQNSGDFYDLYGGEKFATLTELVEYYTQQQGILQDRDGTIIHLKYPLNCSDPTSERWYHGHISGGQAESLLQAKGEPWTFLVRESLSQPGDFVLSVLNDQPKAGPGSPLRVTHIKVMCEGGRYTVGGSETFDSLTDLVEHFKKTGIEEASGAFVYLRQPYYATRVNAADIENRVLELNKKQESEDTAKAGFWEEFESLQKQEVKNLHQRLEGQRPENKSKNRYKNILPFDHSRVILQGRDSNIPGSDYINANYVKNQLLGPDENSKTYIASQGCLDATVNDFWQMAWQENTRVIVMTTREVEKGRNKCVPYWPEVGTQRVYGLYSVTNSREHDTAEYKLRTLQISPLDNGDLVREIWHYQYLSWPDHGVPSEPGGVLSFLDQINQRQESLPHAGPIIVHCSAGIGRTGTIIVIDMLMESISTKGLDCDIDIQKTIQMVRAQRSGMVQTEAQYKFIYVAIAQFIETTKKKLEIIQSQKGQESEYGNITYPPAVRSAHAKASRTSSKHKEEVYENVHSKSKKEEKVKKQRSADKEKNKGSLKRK

Results are given in words; binding and its absence hold for the method and conditions named. For part of these data: Binding seen in cells or lysates may run through a third protein. Some binding calls cover weakened binding; strength is not graded here. For part of these data: Sequences can lack the tags named with a protein.

The target in assay [1] is T1, CD16 receptor (FcγRIIIA/CD16), endogenous in Raw264.7 (mouse (endogenous in Raw264.7)) (UniProt P08508).
T1 sequence: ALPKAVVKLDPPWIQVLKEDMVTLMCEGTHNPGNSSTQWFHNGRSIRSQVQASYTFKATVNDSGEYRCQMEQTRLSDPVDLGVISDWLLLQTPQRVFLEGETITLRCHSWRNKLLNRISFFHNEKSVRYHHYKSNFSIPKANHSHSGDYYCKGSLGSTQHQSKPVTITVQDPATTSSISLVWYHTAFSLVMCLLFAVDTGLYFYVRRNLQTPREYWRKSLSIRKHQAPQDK
Kind of assay: co-IP; endogenous proteins in Raw264.7 stimulated with conditioned medium of 4T1 cells (the text says co-cultured with 4T1 for Vtn-C1qbp); whole lysate, and also the membrane fraction for Vtn-C1qbp; antibody-coated Protein A/G magnetic beads, overnight at 4 °C; washes in PBS + 0.5% Tween-20, pH 7.4.

Assay [2] addresses T2, complement C1Q binding protein (C1qbp), endogenous in Raw264.7 macrophages (mouse (endogenous in Raw264.7)) (UniProt O35658).
T2 sequence: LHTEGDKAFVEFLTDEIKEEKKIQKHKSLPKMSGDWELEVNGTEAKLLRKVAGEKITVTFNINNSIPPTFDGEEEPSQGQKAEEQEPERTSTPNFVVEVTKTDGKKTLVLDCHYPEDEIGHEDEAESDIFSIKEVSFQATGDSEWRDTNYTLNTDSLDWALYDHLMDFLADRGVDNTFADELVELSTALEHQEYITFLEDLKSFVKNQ
In words: flow cytometry on cells; control or C1qbp-knockdown Raw264.7 cells stimulated with conditioned medium from 4T1 cells expressing Myc-tagged Vtn; Myc-Vtn detected on the cell surface. Background: Flow cytometry measures light scatter and fluorescence of single cells or particles in a stream.

Assay [3] concerns the target T2, complement C1Q binding protein (C1qbp), endogenous in Raw264.7 macrophages (mouse (endogenous in Raw264.7)). In words: co-IP; endogenous proteins in Raw264.7 stimulated with conditioned medium of 4T1 cells (the text says co-cultured with 4T1 for Vtn-C1qbp); whole lysate, and also the membrane fraction for Vtn-C1qbp; antibody-coated Protein A/G magnetic beads, overnight at 4 °C; washes in PBS + 0.5% Tween-20, pH 7.4.

Assay [4] has as its target T3, Flag-tagged full-length C1qbp (C1qbp FL) (mouse) (UniProt O35658).
T3 sequence: T2 sequence
In words: co-IP; HEK293T cells co-transfected with Myc-tagged Vtn and Flag-tagged full-length C1qbp or C1qbpΔαA; western blotting.

Assay [5] has as its target T4, Flag-tagged C1qbpΔαA (C1qbp lacking the αA domain, amino acid residues 77-96) (mouse) (UniProt O35658).
T4 sequence: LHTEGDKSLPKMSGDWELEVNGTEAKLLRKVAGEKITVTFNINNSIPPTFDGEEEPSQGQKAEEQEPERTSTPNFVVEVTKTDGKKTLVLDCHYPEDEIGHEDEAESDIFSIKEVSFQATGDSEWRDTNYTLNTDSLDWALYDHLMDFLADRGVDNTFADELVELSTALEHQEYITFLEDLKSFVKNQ
The description is as above.

For “tyrosine phosphatase Src homologous region 2 containing phosphatase 1 (Shp1), endogenous in Raw264.7 (from UniProt P29351 1-595) (enzyme)”, in assay [1], the binding result is “binds”.

B1: Myc-tagged Vtn (vitronectin) in conditioned medium of 4T1 (Myc-Vtn^OE) cells (ligand, UniProt P29788 20-478)
chain: DQESCKGRCTQGFMASKKCQCDELCTYYQSCCADYMEQCKPQVTRGDVFTMPEDDYWSYDYVEEPKNNTNTGVQPENTSPPGDLNPRTDGTLKPTAFLDPEEQPSTPAPKVEQQEEILRPDTTDQGTPEFPEEELCSGKPFDAFTDLKNGSLFAFRGQYCYELDETAVRPGYPKLIQDVWGIEGPIDAAFTRINCQGKTYLFKGSQYWRFEDGVLDPGYPRNISEGFSGIPDNVDAAFALPAHRYSGRERVYFFKGKQYWEYEFQQQPSQEECEGSSLSAVFEHFALLQRDSWENIFELLFWGRSSDGAREPQFISRNWHGVPGKVDAAMAGRIYVTGSLSHSAQAKKQKSKRRSRKRYRSRRGRGHRRSQSSNSRRSSRSIWFSLFSSEESGLGTYNNYDYDMDWLVPATCEPIQSVYFFSGDKYYRVNLRTRRVDSVNPPYPRSIAQYWLGCPTSEK
Regarding B1, in assay [2], the binding result is on record as “binds”.

B2: Vitronectin (Vtn) secreted by 4T1 tumor cells (ligand, UniProt P29788 20-478)
chain: B1 chain
Consider B2, for which the binding entry in assay [3] is “binds”.

B3: Myc-tagged Vtn expressed in HEK293T cells (ligand, UniProt P29788 20-478)
chain: B1 chain
For the molecule B3, the binding entry in assay [4] and in assay [5] was “binds” in each case.

B4: CD16 receptor (FcγRIIIA/CD16), endogenous in Raw264.7 (receptor, UniProt P08508 31-261)
chain: T1 sequence
With B4, the binding entry in assay [3] is listed as “binds”.
